The record followed here is paper PMC10116723.

Chains of the proteins cited; added tags and fusions are not shown. Lines headed by an entry give the natural chain unless they say otherwise; changes in a name come on top.
UniProt Q14457: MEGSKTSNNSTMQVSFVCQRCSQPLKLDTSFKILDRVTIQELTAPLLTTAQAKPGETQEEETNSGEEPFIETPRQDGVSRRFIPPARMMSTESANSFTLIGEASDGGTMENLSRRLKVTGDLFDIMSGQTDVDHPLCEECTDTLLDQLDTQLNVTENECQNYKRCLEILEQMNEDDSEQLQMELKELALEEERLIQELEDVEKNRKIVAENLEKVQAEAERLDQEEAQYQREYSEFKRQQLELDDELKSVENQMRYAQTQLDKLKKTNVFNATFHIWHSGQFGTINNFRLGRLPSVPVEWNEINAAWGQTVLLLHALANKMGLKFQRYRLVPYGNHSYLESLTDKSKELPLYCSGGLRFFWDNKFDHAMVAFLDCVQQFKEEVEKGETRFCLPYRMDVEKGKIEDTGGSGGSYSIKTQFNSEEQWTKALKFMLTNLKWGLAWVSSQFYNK
UniProt Q86WV6: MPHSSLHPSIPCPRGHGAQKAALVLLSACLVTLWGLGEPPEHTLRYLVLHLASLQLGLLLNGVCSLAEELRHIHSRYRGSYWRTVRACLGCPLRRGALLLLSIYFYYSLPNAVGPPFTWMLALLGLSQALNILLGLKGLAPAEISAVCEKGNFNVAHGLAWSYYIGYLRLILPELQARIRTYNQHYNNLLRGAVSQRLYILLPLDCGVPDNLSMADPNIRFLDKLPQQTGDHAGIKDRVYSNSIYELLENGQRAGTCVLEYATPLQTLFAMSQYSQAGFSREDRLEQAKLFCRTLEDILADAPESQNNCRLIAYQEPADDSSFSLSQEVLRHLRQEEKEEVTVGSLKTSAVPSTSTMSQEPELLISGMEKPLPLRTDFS

These are yes or no findings as the source states them, for the method shown. In cells and extracts the contact can be indirect. Some results given as binding are weak or reduced against the parent protein; the word gives no strength.

In test [1] the target is Flag-tagged Beclin-1 (human) (UniProt Q14457). The experiment in a line: co-IP; HepaRG cells (or shScram/shST2 cells) co-transfected with tagged plasmids for 24 h, with or without Myc-ST2, rhIL-33 (100 ng/mL), APAP (10 mmol/L, 12 h) or 3-MA (10 mM, 12 h); RIPA lysis; 1 ug primary antibody (anti-Flag, anti-HA or anti-Myc) overnight at 4 °C, Protein G sepharose 4 h; immunoblot.

The target of test [2] is STING, endogenous (human (endogenous in HepaRG or Huh7 ST2-OE/vector cells)) (UniProt Q86WV6). The experiment in a line: co-IP; lysates of ST2-OE and vector cells immunoprecipitated with STING antibody, blotted for Beclin-1; endogenous proteins.

For the substance “HA-tagged STING (stimulator of interferon response cGAMP interactor 1) (from UniProt Q86WV6 1-379)”, the binding entry in test [1] is reported as “binds”.

Regarding “HA-STING^1-190 (N-terminal truncation mutant of STING) (from UniProt Q86WV6 1-190) (domain or fragment)”, in test [1], the binding result is given as “no binding”. As to “Beclin-1, endogenous (from UniProt Q14457 1-450)”, the binding result in test [2] was “binds”. On to “HA-STING^191-379 (C-terminal truncation mutant of STING) (from UniProt Q86WV6 191-379) (domain or fragment)”, for which the binding entry in test [1] is “binds”.
